{"source": "patent US20230312652A1", "about": "(Aarhus Universitet, priority 2020, published 2023)", "note": "End groups of sequences in plain letters are not given here."}
{"assay": "general procedure: Fmoc solid-phase peptide synthesis; 2-CTC Resin (Sub 1.05 mmol/g); HBTU/DIPEA", "details": "whole synthesis, HPLC, scale of the general procedure 0.2 mmol", "units": {"purity (crude or final not stated)": "%"}}
{"substance": "Ac-MTEPVEHEEDV-NH2", "purity (crude or final not stated)": 99.0}
{"substance": "YARAAARNARAEKEQEMTDPVDHDEDVQGAVQ (Linear peptide)", "purity (crude or final not stated)": 96.0}
{"substance": "[MIGSVEQEENA]", "purity (crude or final not stated)": 93.2}
{"assay": "general procedure: Fmoc solid-phase peptide synthesis; 2-CTC Resin (Sub 1.05 mmol/g); HBTU/DIPEA", "details": "whole synthesis, HPLC, scale of the general procedure 0.2 mmol, head-to-tail ring", "units": {"purity (crude or final not stated)": "%"}}
{"substance": "[MIEPVEHEESR]", "purity (crude or final not stated)": 95.6}
{"substance": "[MTAPVAHAEDV]", "purity (crude or final not stated)": 95.8}
{"substance": "[MTDPVDHDEDV]", "purity (crude or final not stated)": 96.2}
{"substance": "[MTEPVEHEEDV]", "purity (crude or final not stated)": 99.7}
